Measured values from PMC11043371.
No constants are given. Whether binding was seen depends on the method and setting. In cells and extracts the contact can be indirect. Here binding means that the protein was enriched with, or labelled near, the bait; the list need not be complete.

The chains behind the UniProt entries cited, without tags or fusion partners.
UniProt P12956: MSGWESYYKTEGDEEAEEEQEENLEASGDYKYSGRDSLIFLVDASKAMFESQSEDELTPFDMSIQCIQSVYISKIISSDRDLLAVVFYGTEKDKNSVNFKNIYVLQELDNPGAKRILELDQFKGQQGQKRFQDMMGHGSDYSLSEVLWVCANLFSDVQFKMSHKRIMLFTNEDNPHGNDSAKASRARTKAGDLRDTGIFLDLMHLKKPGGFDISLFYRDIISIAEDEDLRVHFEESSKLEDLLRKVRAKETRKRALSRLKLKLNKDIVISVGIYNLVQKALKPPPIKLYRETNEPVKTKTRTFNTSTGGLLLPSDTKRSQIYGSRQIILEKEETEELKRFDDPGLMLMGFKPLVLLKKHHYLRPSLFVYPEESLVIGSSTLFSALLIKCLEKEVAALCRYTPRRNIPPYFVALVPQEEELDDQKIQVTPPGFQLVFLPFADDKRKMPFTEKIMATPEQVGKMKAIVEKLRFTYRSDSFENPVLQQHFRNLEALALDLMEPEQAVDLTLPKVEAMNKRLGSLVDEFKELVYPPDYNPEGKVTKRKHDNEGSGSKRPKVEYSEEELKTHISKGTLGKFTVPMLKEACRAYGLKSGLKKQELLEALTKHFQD
UniProt P13010: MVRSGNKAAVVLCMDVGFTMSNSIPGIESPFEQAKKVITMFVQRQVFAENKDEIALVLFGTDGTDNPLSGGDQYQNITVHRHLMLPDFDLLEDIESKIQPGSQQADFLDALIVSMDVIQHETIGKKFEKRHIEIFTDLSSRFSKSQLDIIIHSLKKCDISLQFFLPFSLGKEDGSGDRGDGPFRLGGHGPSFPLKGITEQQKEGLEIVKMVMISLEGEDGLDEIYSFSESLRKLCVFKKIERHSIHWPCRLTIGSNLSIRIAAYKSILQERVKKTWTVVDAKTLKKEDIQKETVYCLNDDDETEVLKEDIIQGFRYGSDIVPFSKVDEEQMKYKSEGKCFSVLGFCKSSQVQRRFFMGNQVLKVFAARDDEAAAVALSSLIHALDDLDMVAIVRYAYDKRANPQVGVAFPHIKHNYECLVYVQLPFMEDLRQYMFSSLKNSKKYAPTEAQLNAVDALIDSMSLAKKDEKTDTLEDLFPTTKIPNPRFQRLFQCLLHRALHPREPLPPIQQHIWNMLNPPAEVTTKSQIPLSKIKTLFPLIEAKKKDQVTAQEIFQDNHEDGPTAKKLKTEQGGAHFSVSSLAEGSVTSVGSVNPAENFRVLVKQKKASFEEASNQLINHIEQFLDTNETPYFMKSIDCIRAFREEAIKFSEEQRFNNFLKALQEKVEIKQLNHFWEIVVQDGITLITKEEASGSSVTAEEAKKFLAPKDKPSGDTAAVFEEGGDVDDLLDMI

Biological target: T1, Ferroptosis suppressor protein 1 (human (endogenous in HEK 293T)) (UniProt Q9BRQ8)
T1 sequence: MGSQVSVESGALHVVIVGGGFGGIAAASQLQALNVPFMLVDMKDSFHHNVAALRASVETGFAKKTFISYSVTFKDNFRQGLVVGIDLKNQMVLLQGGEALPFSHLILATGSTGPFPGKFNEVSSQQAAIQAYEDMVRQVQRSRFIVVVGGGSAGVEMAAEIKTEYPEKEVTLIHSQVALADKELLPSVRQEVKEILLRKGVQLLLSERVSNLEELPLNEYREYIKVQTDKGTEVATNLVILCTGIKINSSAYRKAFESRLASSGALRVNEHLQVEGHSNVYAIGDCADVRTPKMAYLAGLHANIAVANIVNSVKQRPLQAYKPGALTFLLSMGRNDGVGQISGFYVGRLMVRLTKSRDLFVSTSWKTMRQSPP
Test: affinity purification with mass spectrometry; Co-IP with anti-FSP1 antibody from HEK 293T lysate (IP lysis buffer, protein A/G magnetic beads, 4 °C), then mass spectrometry

binding	Substance
binds	Ku70 (from UniProt P12956 1-609)
binds	Ku80 (from UniProt P13010 1-732)
